In patent US10450346B2, “Immunotherapy against several tumors of the blood, in particular chronic lymphoid leukemia (CLL)” (Immatics biotechnologies GmbH, priority 2014, dated 2019):

System: primary CLL samples (PBMC from CLL patients), HLA class I ligands
Experiment: HLA class I ligandome analysis by LC-MS/MS (frequency of HLA restricted presentation)
Parameters: species or system human
Conditions: for Number of positive CLLs: CLL patient HLA class I ligandomes (n = 30); for Number of positive CLLs (frequency [%]): source protein (LiTAA) representation in CLL patient HLA class I ligandomes (n = 30)

| Molecule | Number of positive CLLs | Number of positive CLLs (frequency [%]) [%] |
| --- | --- | --- |
| interferon regulatory factor 9 (protein, UniProt Q00978 1-393, looked up, LiTAA source protein) Interferon regulatory factor 9: MASGRARCTRKLRNWVVEQVESGQFPGVCWDDTAKTMFRIPWKHAGKQDFREDQDAAFFKAWAIFKGKYKEGDTGGPAVWKTRLRCALNKSSEFKEVPERGRMDVAEPYKVYQLLPPGIVSGQPGTQKVPSKRQHSSVSSERKEEEDAMQNCTLSPSVLQDSLNNEEEGASGGAVHSDIGSSSSSSSPEPQEVTDTTEAPFQGDQRSLEFLLPPEPDYSLLLTFIYNGRVVGEAQVQSLDCRLVAEPSGSESSMEQVLFPKPGPLEPTQRLLSQLERGILVASNPRGLFVQRLCPIPISWNAPQAPPGPGPHLLPSNECVELFRTAYFCRDLVRYFQGLGPPPKFQVTLNFWEESHGSSHTPQNLITVKMEQAFARYLLEQTPEQQAAILSLV | 8 | 26.7 |
| tumor protein p53 inducible protein 11 (protein, UniProt O14683 1-189, looked up, LiTAA source protein) Tumor protein p53-inducible …: MAAKQPPPLMKKHSQTDLVSRLKTRKILGVGGEDDDGEVHRSKISQVLGNEIKFTIREPLGLRVWQFVSAVLFSGIAIMALAFPDQLYDAVFDGAQVTSKTPIRLYGGALLSISLIMWNALYTAEKVIIRWTLLTEACYFGVQFLVVTATLAETGLMSLGILLLLVSRLLFVVISIYYYYQVGRRPKKA | 8 | 26.7 |
| zinc finger, AN1-type domain 5 (protein, UniProt O76080 1-213, looked up, LiTAA source protein) AN1-type zinc finger protein 5: MAQETNQTPGPMLCSTGCGFYGNPRTNGMCSVCYKEHLQRQQNSGRMSPMGTASGSNSPTSDSASVQRADTSLNNCEGAAGSTSEKSRNVPVAALPVTQQMTEMSISREDKITTPKTEVSEPVVTQPSPSVSQPSTSQSEEKAPELPKPKKNRCFMCRKKVGLTGFDCRCGNLFCGLHRYSDKHNCPYDYKAEAAAKIRKENPVVVAEKIQRI | 7 | 23.3 |
| lysine (K)-specific demethylase 2B (protein, UniProt Q8NHM5 1-1336, looked up, LiTAA source protein) Lysine-specific demethylase 2B: MAGPQMGGSAEDHPPRKRHAAEKQKKKTVIYTKCFEFESATQRPIDRQRYDENEDLSDVEEIVSVRGFSLEEKLRSQLYQGDFVHAMEGKDFNYEYVQREALRVPLIFREKDGLGIKMPDPDFTVRDVKLLVGSRRLVDVMDVNTQKGTEMSMSQFVRYYETPEAQRDKLYNVISLEFSHTKLEHLVKRPTVVDLVDWVDNMWPQHLKEKQTEATNAIAEMKYPKVKKYCLMSVKGCFTDFHIDFGGTSVWYHVFRGGKIFWLIPPTLHNLALYEEWVLSGKQSDIFLGDRVERCQRIELKQGYTFFIPSGWIHAVYTPVDSLVFGGNILHSFNVPMQLRIYEIEDRTRVQPKFRYPFYYEMCWYVLERYVYCVTQRSHLTQEYQRESMLIDAPRKPSIDGFSSDSWLEMEEEACDQQPQEEEEKDEEGEGRDRAPKPPTDGSTSPTSTPSEDQEALGKKPKAPALRFLKRTLSNESEESVKSTTLAVDYPKTPTGSPATEVSAKWTHLTEFELKGLKALVEKLESLPENKKCVPEGIEDPQALLEGVKNVLKEHADDDPSLAITGVPVVTWPKKTPKNRAVGRPKGKLGPASAVKLAANRTTAGARRRRTRCRKCEACLRTECGECHFCKDMKKFGGPGRMKQSCIMRQCIAPVLPHTAVCLVCGEAGKEDTVEEEEGKFNLMLMECSICNEIIHPGCLKIKESEGVVNDELPNCWECPKCNHAGKTGKQKRGPGFKYASNLPGSLLKEQKMNRDNKEGQEPAKRRSECEEAPRRRSDEHSKKVPPDGLLRRKSDDVHLRKKRKYEKPQELSGRKRASSLQTSPGSSSHLSPRPPLGSSLSPWWRSSLTYFQQQLKPGKEDKLFRKKRRSWKNAEDRMALANKPLRRFKQEPEDELPEAPPKTRESDHSRSSSPTAGPSTEGAEGPEEKKKVKMRRKRRLPNKELSRELSKELNHEIQRTENSLANENQQPIKSEPESEGEEPKRPPGICERPHRFSKGLNGTPRELRHQLGPSLRSPPRVISRPPPSVSPPKCIQMERHVIRPPPISPPPDSLPLDDGAAHVMHREVWMAVFSYLSHQDLCVCMRVCRTWNRWCCDKRLWTRIDLNHCKSITPLMLSGIIRRQPVSLDLSWTNISKKQLSWLINRLPGLRDLVLSGCSWIAVSALCSSSCPLLRTLDVQWVEGLKDAQMRDLLSPPTDNRPGQMDNRSKLRNIVELRLAGLDITDASLRLIIRHMPLLSKLHLSYCNHVTDQSINLLTAVGTTTRDSLTEINLSDCNKVTDQCLSFFKRCGNICHIDLRYCKQVTKEGCEQFIAEMSVSVQFGQVEEKLLQKLS | 8 | 26.7 |
| poly (ADP-ribose) polymerase family, member 3 (protein, UniProt Q9Y6F1 1-533, looked up) Protein …: MAPKPKPWVQTEGPEKKKGRQAGREEDPFRSTAEALKAIPAEKRIIRVDPTCPLSSNPGTQVYEDYNCTLNQTNIENNNNKFYIIQLLQDSNRFFTCWNRWGRVGEVGQSKINHFTRLEDAKKDFEKKFREKTKNNWAERDHFVSHPGKYTLIEVQAEDEAQEAVVKVDRGPVRTVTKRVQPCSLDPATQKLITNIFSKEMFKNTMALMDLDVKKMPLGKLSKQQIARGFEALEALEEALKGPTDGGQSLEELSSHFYTVIPHNFGHSQPPPINSPELLQAKKDMLLVLADIELAQALQAVSEQEKTVEEVPHPLDRDYQLLKCQLQLLDSGAPEYKVIQTYLEQTGSNHRCPTLQHIWKVNQEGEEDRFQAHSKLGNRKLLWHGTNMAVVAAILTSGLRIMPHSGGRVGKGIYFASENSKSAGYVIGMKCGAHHVGYMFLGEVALGREHHINTDNPSLKSPPPGFDSVIARGHTEPDPTQDTELELDGQQVVVPQGQPVPCPEFSSSTFSQSEYLIYQESQCRLRYLLEVHL | 10 | 33.3 |
| TBC1 domain family, member 22A (protein, UniProt Q8WUA7 2-517, looked up, LiTAA source protein) TBC1 domain family member 22A: ASDGARKQFWKRSNSKLPGSIQHVYGAQHPPFDPLLHGTLLRSTAKMPTTPVKAKRVSTFQEFESNTSDAWDAGEDDDELLAMAAESLNSEVVMETANRVLRNHSQRQGRPTLQEGPGLQQKPRPEAEPPSPPSGDLRLVKSVSESHTSCPAESASDAAPLQRSQSLPHSATVTLGGTSDPSTLSSSALSEREASRLDKFKQLLAGPNTDLEELRRLSWSGIPKPVRPMTWKLLSGYLPANVDRRPATLQRKQKEYFAFIEHYYDSRNDEVHQDTYRQIHIDIPRMSPEALILQPKVTEIFERILFIWAIRHPASGYVQGINDLVTPFFVVFICEYIEAEEVDTVDVSGVPAEVLCNIEADTYWCMSKLLDGIQDNYTFAQPGIQMKVKMLEELVSRIDEQVHRHLDQHEVRYLQFAFRWMNNLLMREVPLRCTIRLWDTYQSEPDGFSHFHLYVCAAFLVRWRKEILEEKDFQELLLFLQNLPTAHWDDEDISLLLAEAYRLKFAFADAPNHYKK | 8 | 26.7 |
| zinc finger protein 296 (protein, UniProt Q8WUU4 1-475, looked up, LiTAA source protein) Zinc finger protein 296: MSRRKAGSAPRRVEPAPAANPDDEMEMQDLVIELKPEPDAQPQQAPRLGPFSPKEVSSAGRFGGEPHHSPGPMPAGAALLALGPRNPWTLWTPLTPNYPDRQPWTDKHPDLLTCGRCLQTFPLEAITAFMDHKKLGCQLFRGPSRGQGSEREELKALSCLRCGKQFTVAWKLLRHAQWDHGLSIYQTESEAPEAPLLGLAEVAAAVSAVVGPAAEAKSPRASGSGLTRRSPTCPVCKKTLSSFSNLKVHMRSHTGERPYACDQCPYACAQSSKLNRHKKTHRQVPPQSPLMADTSQEQASAAPPEPAVHAAAPTSTLPCSGGEGAGAAATAGVQEPGAPGSGAQAGPGGDTWGAITTEQRTDPANSQKASPKKMPKSGGKSRGPGGSCEFCGKHFTNSSNLTVHRRSHTGERPYTCEFCNYACAQSSKLNRHRRMHGMTPGSTRFECPHCHVPFGLRATLDKHLRQKHPEAAGEA | 8 | 26.7 |
| AT rich interactive domain 5B (MRF1-like) (protein, UniProt Q14865 1-1188, looked up, LiTAA source protein) AT-rich interactive …: MEPNSLQWVGSPCGLHGPYIFYKAFQFHLEGKPRILSLGDFFFVRCTPKDPICIAELQLLWEERTSRQLLSSSKLYFLPEDTPQGRNSDHGEDEVIAVSEKVIVKLEDLVKWVHSDFSKWRCGFHAGPVKTEALGRNGQKEALLKYRQSTLNSGLNFKDVLKEKADLGEDEEETNVIVLSYPQYCRYRSMLKRIQDKPSSILTDQFALALGGIAVVSRNPQILYCRDTFDHPTLIENESICDEFAPNLKGRPRKKKPCPQRRDSFSGVKDSNNNSDGKAVAKVKCEARSALTKPKNNHNCKKVSNEEKPKVAIGEECRADEQAFLVALYKYMKERKTPIERIPYLGFKQINLWTMFQAAQKLGGYETITARRQWKHIYDELGGNPGSTSAATCTRRHYERLILPYERFIKGEEDKPLPPIKPRKQENSSQENENKTKVSGTKRIKHEIPKSKKEKENAPKPQDAAEVSSEQEKEQETLISQKSIPEPLPAADMKKKIEGYQEFSAKPLASRVDPEKDNETDQGSNSEKVAEEAGEKGPTPPLPSAPLAPEKDSALVPGASKQPLTSPSALVDSKQESKLCCFTESPESEPQEASFPSFPTTQPPLANQNETEDDKLPAMADYIANCTVKVDQLGSDDIHNALKQTPKVLVVQSFDMFKDKDLTGPMNENHGLNYTPLLYSRGNPGIMSPLAKKKLLSQVSGASLSSSYPYGSPPPLISKKKLIARDDLCSSLSQTHHGQSTDHMAVSRPSVIQHVQSFRSKPSEERKTINDIFKHEKLSRSDPHRCSFSKHHLNPLADSYVLKQEIQEGKDKLLEKRALPHSHMPSFLADFYSSPHLHSLYRHTEHHLHNEQTSKYPSRDMYRESENSSFPSHRHQEKLHVNYLTSLHLQDKKSAAAEAPTDDQPTDLSLPKNPHKPTGKVLGLAHSTTGPQESKGISQFQVLGSQSRDCHPKACRVSPMTMSGPKKYPESLSRSGKPHHVRLENFRKMEGMVHPILHRKMSPQNIGAARPIKRSLEDLDLVIAGKKARAVSPLDPSKEVSGKEKASEQESEGSKAAHGGHSGGGSEGHKLPLSSPIFPGLYSGSLCNSGLNSRLPAGYSHSLQYLKNQTVLSPLMQPLAFHSLVMQRGIFTSPTNSQQLYRHLAAATPVGSSYGDLLHNSIYPLAAINPQAAFPSSQLSSVHPSTKL | 7 | 23.3 |
